{"source": "paper PMC11402202", "key": {"[1]": {"test_system": "AP2XII-4-D1 (AP2-D1) (Neospora caninum Nc1)", "assay": "EMSA", "conditions": "signal lost with unlabeled cold probe; LightShift Chemiluminescent EMSA Kit (Thermo) per manufacturer; pH and temperature not stated; recombinant protein; protein details: His, Halo (pET30a)"}, "[2]": {"test_system": "AP2XII-4-D2 (AP2-D2) (Neospora caninum Nc1)", "assay": "EMSA", "conditions": "signal lost with unlabeled cold probe; LightShift Chemiluminescent EMSA Kit (Thermo) per manufacturer; pH and temperature not stated; recombinant protein; protein details: His, Halo (pET30a)"}}, "note": "Construct, isoform or probe ends are uncertain for at least one entry."}
{"sequence": "GGCACTTCTTCAACTGACAACGTAATCA (double strand) [ROP5 promoter probe]", "values": [{"measurement": "binding result", "setting": "[1]", "result": "binds"}, {"measurement": "binding result", "setting": "[2]", "result": "binds"}]}
